The source gives many values for each of these; only a part stands here.
Tested on: in-house strain of Aspergillus niger
Assay: Heat treatment of in-house Aspergillus niger spores in ice tea with natamycin, visual growth
Format: cell-based
Design: key: growth (+); no growth (−)
Description: Commercially available ice tea (Lipton, peach flavor, non-carbonated, 1.5 L) was adjusted to high water hardness by adding 1 ml of a solution of 39 g CaCl2 and 27 g MgCl2 added to 934 g water. ⅓ of this ice tea preparation (the pH of which was 3.15) was left as-such, ⅓ of the preparation was enriched with 5 ppm natamycin and ⅓ of the preparation was enriched with 10 ppm natamycin. Samples of 5 ml were made from each preparation in 15 ml sterile plastic tubes. Of each preparation 8 samples were pre-heated to the desired pasteurization temperature using a water bath. Temperatures used were RT, 60, 65, 70, 75, 80, 85 and 90° C. When the desired temperature was reached, 100 μl of a 2500 spores/ml spore suspension of Aspergillus niger ATCC 9029AA was added to each tube. Subsequently, the samples were kept for 30 seconds at the temperature in question in the water bath. Next, the samples were cooled on ice to a temperature of 25° C. Samples were incubated at 25° C. and visually examined for growth (formation of mold flakes or turbidity) for two months. Additionally, samples were enumerated according to ISO protocol 21527-1.2008 on day 0 (before heat treatment) and day 1 (after heat treatment) to count immediate loss of viability. […] For the results, see Table 1. […] For comparative reasons, Example 1 was repeated with an in-house strain of Aspergillus niger. […] For the results, see Table 2.

## C[C@@H]1C/C=C/C=C/C=C/C=C/[C@H](O[C@@H]2O[C@H](C)[C@@H](O)[C@H](N)[C@@H]2O)C[C@@H]2O[C@](O)(C[C@@H](O)C[C@H]3O[C@@H]3/C=C/C(=O)O1)C[C@H](O)[C@H]2C(=O)O [natamycin]
75°C, 10 ppm, day 1
  growth or no growth: −
75°C, 10 ppm, day 2
  growth or no growth: −
75°C, 10 ppm, day 3
  growth or no growth: −
75°C, 10 ppm, day 4
  growth or no growth: −
75°C, 10 ppm, day 5
  growth or no growth: −
75°C, 10 ppm, day 6
  growth or no growth: −
75°C, 10 ppm, day 7
  growth or no growth: −
75°C, 10 ppm, day 8
  growth or no growth: −
75°C, 10 ppm, day 11
  growth or no growth: −
75°C, 10 ppm, day 12
  growth or no growth: −
75°C, 10 ppm, day 13
  growth or no growth: −
75°C, 10 ppm, day 14
  growth or no growth: −
80°C, 5 ppm, day 1
  growth or no growth: −
80°C, 5 ppm, day 2
  growth or no growth: −
80°C, 5 ppm, day 3
  growth or no growth: −
80°C, 5 ppm, day 4
  growth or no growth: −
80°C, 5 ppm, day 5
  growth or no growth: −
80°C, 5 ppm, day 6
  growth or no growth: −
80°C, 5 ppm, day 7
  growth or no growth: −
80°C, 5 ppm, day 8
  growth or no growth: −
80°C, 5 ppm, day 9
  growth or no growth: −
80°C, 5 ppm, day 10
  growth or no growth: −
80°C, 5 ppm, day 11
  growth or no growth: −
80°C, 5 ppm, day 12
  growth or no growth: −
80°C, 5 ppm, day 13
  growth or no growth: −
80°C, 5 ppm, day 14
  growth or no growth: −
80°C, 10 ppm, day 1
  growth or no growth: −
80°C, 10 ppm, day 2
  growth or no growth: −
80°C, 10 ppm, day 3
  growth or no growth: −
80°C, 10 ppm, day 4
  growth or no growth: −
80°C, 10 ppm, day 5
  growth or no growth: −
80°C, 10 ppm, day 6
  growth or no growth: −
80°C, 10 ppm, day 7
  growth or no growth: −
80°C, 10 ppm, day 8
  growth or no growth: −
80°C, 10 ppm, day 9
  growth or no growth: −
80°C, 10 ppm, day 10
  growth or no growth: −
80°C, 10 ppm, day 11
  growth or no growth: −
80°C, 10 ppm, day 12
  growth or no growth: −
80°C, 10 ppm, day 13
  growth or no growth: −
80°C, 10 ppm, day 14
  growth or no growth: −
85°C, 5 ppm, day 1
  growth or no growth: −
85°C, 5 ppm, day 2
  growth or no growth: −
85°C, 5 ppm, day 3
  growth or no growth: −
85°C, 5 ppm, day 4
  growth or no growth: −
85°C, 5 ppm, day 5
  growth or no growth: −
85°C, 5 ppm, day 6
  growth or no growth: −
85°C, 5 ppm, day 7
  growth or no growth: −
85°C, 5 ppm, day 8
  growth or no growth: −
85°C, 5 ppm, day 9
  growth or no growth: −
85°C, 5 ppm, day 10
  growth or no growth: −
85°C, 5 ppm, day 11
  growth or no growth: −
85°C, 5 ppm, day 12
  growth or no growth: −
85°C, 5 ppm, day 13
  growth or no growth: −
85°C, 5 ppm, day 14
  growth or no growth: −
85°C, 10 ppm, day 1
  growth or no growth: −
85°C, 10 ppm, day 2
  growth or no growth: −
85°C, 10 ppm, day 3
  growth or no growth: −
85°C, 10 ppm, day 4
  growth or no growth: −
85°C, 10 ppm, day 5
  growth or no growth: −
85°C, 10 ppm, day 6
  growth or no growth: −
85°C, 10 ppm, day 7
  growth or no growth: −
85°C, 10 ppm, day 8
  growth or no growth: −
85°C, 10 ppm, day 9
  growth or no growth: −
85°C, 10 ppm, day 10
  growth or no growth: −
85°C, 10 ppm, day 11
  growth or no growth: −
85°C, 10 ppm, day 12
  growth or no growth: −
85°C, 10 ppm, day 13
  growth or no growth: −
85°C, 10 ppm, day 14
  growth or no growth: −
90°C, 5 ppm, day 1
  growth or no growth: −
90°C, 5 ppm, day 2
  growth or no growth: −
90°C, 5 ppm, day 3
  growth or no growth: −
90°C, 5 ppm, day 4
  growth or no growth: −
90°C, 5 ppm, day 5
  growth or no growth: −
90°C, 5 ppm, day 6
  growth or no growth: −
90°C, 5 ppm, day 7
  growth or no growth: −
90°C, 5 ppm, day 8
  growth or no growth: −
90°C, 5 ppm, day 9
  growth or no growth: −
90°C, 5 ppm, day 10
  growth or no growth: −
90°C, 5 ppm, day 11
  growth or no growth: −
90°C, 5 ppm, day 12
  growth or no growth: −
90°C, 5 ppm, day 13
  growth or no growth: −
90°C, 5 ppm, day 14
  growth or no growth: −
90°C, 10 ppm, day 1
  growth or no growth: −
90°C, 10 ppm, day 2
  growth or no growth: −
90°C, 10 ppm, day 3
  growth or no growth: −
90°C, 10 ppm, day 4
  growth or no growth: −
90°C, 10 ppm, day 5
  growth or no growth: −
90°C, 10 ppm, day 6
  growth or no growth: −
90°C, 10 ppm, day 7
  growth or no growth: −
90°C, 10 ppm, day 8
  growth or no growth: −
90°C, 10 ppm, day 9
  growth or no growth: −
90°C, 10 ppm, day 10
  growth or no growth: −
90°C, 10 ppm, day 11
  growth or no growth: −
90°C, 10 ppm, day 12
  growth or no growth: −
90°C, 10 ppm, day 13
  growth or no growth: −
90°C, 10 ppm, day 14
  growth or no growth: −
RT, 5 ppm, day 1
  growth or no growth: −
RT, 5 ppm, day 2
  growth or no growth: −
RT, 5 ppm, day 3
  growth or no growth: −
RT, 5 ppm, day 4
  growth or no growth: −
RT, 5 ppm, day 5
  growth or no growth: −
RT, 5 ppm, day 6
  growth or no growth: −
RT, 5 ppm, day 7
  growth or no growth: +
RT, 5 ppm, day 8
  growth or no growth: +
RT, 5 ppm, day 9
  growth or no growth: +
RT, 5 ppm, day 10
  growth or no growth: +
RT, 5 ppm, day 11
  growth or no growth: +
RT, 5 ppm, day 12
  growth or no growth: +
RT, 5 ppm, day 13
  growth or no growth: +
RT, 5 ppm, day 14
  growth or no growth: +
RT, 10 ppm, day 1
  growth or no growth: −
RT, 10 ppm, day 2
  growth or no growth: −
RT, 10 ppm, day 3
  growth or no growth: −
RT, 10 ppm, day 4
  growth or no growth: −
RT, 10 ppm, day 5
  growth or no growth: −
RT, 10 ppm, day 6
  growth or no growth: −
RT, 10 ppm, day 7
  growth or no growth: −
RT, 10 ppm, day 8
  growth or no growth: −
RT, 10 ppm, day 9
  growth or no growth: −
RT, 10 ppm, day 10
  growth or no growth: −
RT, 10 ppm, day 11
  growth or no growth: +
RT, 10 ppm, day 12
  growth or no growth: +
RT, 10 ppm, day 13
  growth or no growth: +
RT, 10 ppm, day 14
  growth or no growth: +
